In patent US20210047373A1, “BETA BARREL POLYPEPTIDES AND METHODS FOR THEIR USE” (UNIVERSITY OF WASHINGTON, priority 2018, published 2021) one finds Densitometry data, which are given here for 9 molecules.

This series can be described thus: Relative densitometry (expression in Lemo21(DE3) E. coli cultures).

B1: mFAP1: SEQ ID NO:33; variant of b11L5F.2 (protein)
chain: MSRAAQLLPGTWQTTMTNEDGQTSQGQMHFQPRSPYTLDVVAQGTISDGRPISGYGKVTVKTDDTLDVDITYPSLGNIKVQGQVTMDSPTQFKFDATTSDGKKLTGTLQRQE
modifications: (1)..(1) optionally absent
In the case of B1, the Densitometry was 0.4326 (normalized 0 to 1, Table 3A) and 0.4326 (normalized 0 to 1, Table 3B).

B2: mFAP2.4: SEQ ID NO:59 (protein)
chain: MSRAAQLLPGTWQVTMTNEDGQTSQGQMHFQPRSPYTMDIVAQGTISDGRPIVGYGKATVKTPDTLDVDITYPSLGNIKAQGQITMDSPTQFKFDATTKGAGNFTGRLTGTLQRQE
modifications: (1)..(1) optionally absent
Consider B2, for which the Densitometry reads like this: (normalized 0 to 1, Table 3A) 0.7495; (normalized 0 to 1, Table 3B) 0.7495.

B3: mFAP2.1: SEQ ID NO:40 (protein)
chain: MSRAAQLLPGTWQVTMTNEDGQTSQGQMHFQPRSPYTMDVVAQGTISDGRTIVGYGKVTVKTPDTLDVDITYPSLGNIKAQGQITMDSPTQFKFDATTKGAGNFTGRLTGTLQRQE
modifications: (1)..(1) optionally absent
Turning to B3, the Densitometry reads like this: (normalized 0 to 1, Table 3A) 0.4747; (normalized 0 to 1, Table 3B) 0.4747.

B4: mFAP2b: SEQ ID NO:69; mFAP2.5 with V67I (protein)
chain: MSRAAQLLPGTWQVTMTNEDGQTSQGQWHFQPRSPYTMDIVAQGTISDGRPIVGYGKATVKTPDTLDIDITYPSLGNIKAQGQITMDSPTQFKWDATTKGENDFHGRLTGTLQRQE
modifications: (1)..(1) optionally absent
For B4, the Densitometry came to 0.4858 (normalized 0 to 1, Table 3A) and 0.4858 (normalized 0 to 1, Table 3B).

B5: mFAP2.2: SEQ ID NO:41 (protein)
chain: MSRAAQLLPGTWQVTMTNEDGQTSQGQMHFQPRSPYTMDVVAQGTISDGRPIVGYGKVTVKTPDTLDVDITYPSLGNIKAQGQITMDSPTQFKFDATTKGAGNFTGRLTGTLQRQE
modifications: (1)..(1) optionally absent
As for B5, the Densitometry by setting is: (normalized 0 to 1, Table 3A) 0.4749; (normalized 0 to 1, Table 3B) 0.4749.

B6: mFAP2.3: SEQ ID NO:58 (protein)
chain: MSRAAQLLPGTWQVTMTNEDGQTSQGQMHFQPRSPYTMDVVAQGTISDGRPIVGYGKVTVKTPDTLDVDITYPSLGNIKAQGQITMDSPTQFKFDATTKGENDFHGRLTGTLQRQE
modifications: (1)..(1) optionally absent
Regarding B6, the Densitometry came to 0.7958 (normalized 0 to 1, Table 3A) and 0.7958 (normalized 0 to 1, Table 3B).

B7: mFAP2a: SEQ ID NO:66 (protein)
chain: MSRAAQLLPGTWQATFTNEDGQTSQGQWHFQPRSPYTMDIVAQGTISDGRPIVGYGKATVKTPDTLDIDITYPSLGNIKAQGQITMDSPTQFKWDATTKGENDFHGRLTGTLQRQE
modifications: (1)..(1) optionally absent
The molecule B7 registered a Densitometry (normalized 0 to 1, Table 3A) of 0.3875 and a Densitometry (normalized 0 to 1, Table 3B) of 0.3875.

B8: mFAP2.5: SEQ ID NO:60; mutations of mFAP2.3 and mFAP2.4 combined (protein)
chain: MSRAAQLLPGTWQVTMTNEDGQTSQGQWHFQPRSPYTMDIVAQGTISDGRPIVGYGKATVKTPDTLDVDITYPSLGNIKAQGQITMDSPTQFKWDATTKGENDFHGRLTGTLQRQE
modifications: (1)..(1) optionally absent
Molecule B8 gave a Densitometry (normalized 0 to 1, Table 3A) of 0.6405 and a Densitometry (normalized 0 to 1, Table 3B) of 0.6405.

B9: mFAP2: SEQ ID NO:38; variant of b11L5F.1 with 6-residue insertion in the seventh β-turn (protein)
chain: MSRAAQLLPGTWQVTMTNEDGQTSQGQMHFQPRSPYTMDVVAQGTISDGRPISGYGKVTVKTPDTLDVDITYPSLGNIKAQGQITMDSPTQFKFDATTKGAGNFTGRLTGTLQRQE
modifications: (1)..(1) optionally absent
With B9, the Densitometry (normalized 0 to 1, Table 3A) worked out at 0.4332 and the Densitometry (normalized 0 to 1, Table 3B) was 0.4332.
